# Publication doi:10.1101/2022.07.12.499798
# Results are given in words; binding and its absence hold for the method and conditions named. For part of these data: Binding can be weak; no strength is given. For part of these data: In cells and extracts the contact can be indirect.
# What was measured:
# [1] = biological target: T1, KRP4-nEYFP (rice (Oryza sativa)) (UniProt Q7XDH8); experiment: split reporter
# T1 sequence: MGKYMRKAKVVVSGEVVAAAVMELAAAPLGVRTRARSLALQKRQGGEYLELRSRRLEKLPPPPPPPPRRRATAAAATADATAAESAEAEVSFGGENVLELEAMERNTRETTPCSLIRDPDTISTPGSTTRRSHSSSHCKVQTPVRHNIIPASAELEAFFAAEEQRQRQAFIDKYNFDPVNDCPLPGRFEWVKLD
# [2] = biological target: T2, KRP5-nEYFP (rice (Oryza sativa)) (UniProt Q283L0); experiment: split reporter
# T2 sequence: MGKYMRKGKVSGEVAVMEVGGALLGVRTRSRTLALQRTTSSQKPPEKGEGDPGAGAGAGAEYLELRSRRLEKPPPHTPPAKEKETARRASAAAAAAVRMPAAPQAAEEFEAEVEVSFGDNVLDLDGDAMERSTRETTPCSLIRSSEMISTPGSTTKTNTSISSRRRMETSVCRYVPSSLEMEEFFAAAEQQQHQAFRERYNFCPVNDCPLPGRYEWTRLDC
# [3] = biological target: T3, KRP4 (Kip-Related Protein 4), yeast construct (rice (Oryza sativa)) (UniProt Q7XDH8); experiment: two-hybrid
# T3 sequence: T1 sequence
# [4] = biological target: T4, KRP5 (Kip-Related Protein 5), yeast construct (rice (Oryza sativa)) (UniProt Q283L0); experiment: two-hybrid
# T4 sequence: T2 sequence
# [5] = biological target: T5, CDKB2;1, yeast construct (rice (Oryza sativa)) (UniProt Q0J4I1); experiment: two-hybrid
# T5 sequence: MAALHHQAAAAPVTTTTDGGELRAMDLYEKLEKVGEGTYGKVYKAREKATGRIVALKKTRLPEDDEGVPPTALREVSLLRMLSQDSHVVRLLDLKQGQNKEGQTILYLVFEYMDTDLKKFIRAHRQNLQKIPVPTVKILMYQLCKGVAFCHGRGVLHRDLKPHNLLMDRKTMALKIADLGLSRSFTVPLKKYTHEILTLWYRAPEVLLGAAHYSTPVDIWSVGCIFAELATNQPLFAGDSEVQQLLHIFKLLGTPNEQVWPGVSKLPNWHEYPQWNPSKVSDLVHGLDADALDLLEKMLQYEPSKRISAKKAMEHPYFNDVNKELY
# [6] = biological target: T6, CDKE1, yeast two-hybrid construct (rice (Oryza sativa)) (UniProt Q336M2); experiment: two-hybrid
# T6 sequence: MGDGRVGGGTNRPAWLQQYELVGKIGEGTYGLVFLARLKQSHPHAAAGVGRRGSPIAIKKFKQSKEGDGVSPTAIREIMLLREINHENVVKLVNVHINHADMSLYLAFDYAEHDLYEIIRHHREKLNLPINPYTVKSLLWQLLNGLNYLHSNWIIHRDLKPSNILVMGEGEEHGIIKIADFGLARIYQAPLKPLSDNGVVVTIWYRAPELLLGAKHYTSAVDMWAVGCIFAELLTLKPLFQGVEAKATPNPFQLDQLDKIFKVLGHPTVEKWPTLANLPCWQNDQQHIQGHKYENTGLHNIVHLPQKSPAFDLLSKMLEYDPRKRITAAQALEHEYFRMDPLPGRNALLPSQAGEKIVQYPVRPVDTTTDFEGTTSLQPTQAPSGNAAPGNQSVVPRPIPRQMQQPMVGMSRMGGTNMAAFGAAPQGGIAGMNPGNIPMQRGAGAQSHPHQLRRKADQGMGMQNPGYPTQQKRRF
substance,measurement,setting,value
"FB3_(F-box)-cEYFP, truncated FB3 (rice (Oryza sativa)) (domain or fragment)",binding,[1],binds
same,binding,[2],binds
"FB3 (F-box protein 3), yeast two-hybrid prey (rice (Oryza sativa))",binding,[3],binds
same,binding,[4],binds
"CYCD2;1, yeast two-hybrid prey (rice (Oryza sativa))",binding,[5],binds
same,binding,[6],no binding
